Experimental data published in PMC7381519.
Results are given in words; binding and its absence hold for the method and conditions named. Binding seen in cells or lysates may run through a third protein. Some results given as binding are weak or reduced against the parent protein; the word gives no strength.

Amino acid sequences for entries named in this document (tags omitted). Residues count along the entry.
UniProt Q8C6L5: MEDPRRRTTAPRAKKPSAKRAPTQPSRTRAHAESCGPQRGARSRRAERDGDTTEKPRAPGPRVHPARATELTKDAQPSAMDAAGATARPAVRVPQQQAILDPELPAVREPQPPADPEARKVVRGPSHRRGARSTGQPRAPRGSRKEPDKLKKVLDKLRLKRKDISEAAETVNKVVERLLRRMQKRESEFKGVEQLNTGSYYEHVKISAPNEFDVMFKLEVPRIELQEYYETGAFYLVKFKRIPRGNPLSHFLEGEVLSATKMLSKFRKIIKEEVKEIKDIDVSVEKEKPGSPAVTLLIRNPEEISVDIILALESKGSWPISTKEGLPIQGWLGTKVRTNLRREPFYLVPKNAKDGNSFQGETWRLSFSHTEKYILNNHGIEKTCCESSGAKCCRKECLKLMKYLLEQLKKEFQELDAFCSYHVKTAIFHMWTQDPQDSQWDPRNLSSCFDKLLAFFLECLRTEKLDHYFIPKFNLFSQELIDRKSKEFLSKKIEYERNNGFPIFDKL
UniProt Q8N884, residues 161-522: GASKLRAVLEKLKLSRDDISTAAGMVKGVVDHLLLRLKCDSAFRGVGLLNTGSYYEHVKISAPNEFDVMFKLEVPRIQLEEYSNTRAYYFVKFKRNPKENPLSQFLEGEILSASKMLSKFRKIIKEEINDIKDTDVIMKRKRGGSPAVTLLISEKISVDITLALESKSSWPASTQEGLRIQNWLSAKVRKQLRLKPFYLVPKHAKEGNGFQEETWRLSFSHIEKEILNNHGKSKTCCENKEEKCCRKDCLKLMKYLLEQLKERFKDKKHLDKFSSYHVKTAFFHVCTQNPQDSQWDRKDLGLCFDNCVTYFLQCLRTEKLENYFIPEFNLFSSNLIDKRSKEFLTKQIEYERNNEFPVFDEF

Assays:
[1] = target: cGAS, endogenous in murine lung fibroblasts (mouse (endogenous in MLFs)) (UniProt Q8C6L5); test: co-IP; endogenous proteins; cytoplasmic lysates of un-infected MLFs (1 x 10^7); immunoblot with the indicated antibodies
[2] = target: C-terminal catalytic domain (aa 161-522) of cGAS (not stated (human or mouse cDNA cloned)) (UniProt Q8N884); test: co-IP; HEK293T cells transfected with the indicated plasmids for 16 h; domain mapping with cGAS truncations; immunoblot with the indicated antibodies

| Binder | binding [1] | binding [2] |
| --- | --- | --- |
| PPP6C, endogenous in murine lung fibroblasts (enzyme, UniProt Q9CQR6 1-305) MAPLDLDKYVEIARQCKYLPENDLKRLCDYVCDLLLEESNVQPVSTPVTVCGDIHGQFYDLCELFRTGGQVPDTNYIFMGDFVDRGYYSLETFTYLLALKAKWPDRITLLRGNHESRQITQVYGFYDECQTKYGNANAWRYCTKVFDMLTVAALIDEQILCVHGGLSPDIKTLDQIRTIERNQEIPHKGAFCDLVWSDPEDVDTWAISPRGAGWLFGAKVTNEFVHINNLKLICRAHQLVHEGYKFMFDEKLVTVWSAPNYCYRCGNIASIMVFKDVNTREPKLFRAVPDSERVIPPRTTTPYFL | binds |  |
| PPP6C, expressed in HEK293T cells (enzyme, UniProt O00743 1-305) MAPLDLDKYVEIARLCKYLPENDLKRLCDYVCDLLLEESNVQPVSTPVTVCGDIHGQFYDLCELFRTGGQVPDTNYIFMGDFVDRGYYSLETFTYLLALKAKWPDRITLLRGNHESRQITQVYGFYDECQTKYGNANAWRYCTKVFDMLTVAALIDEQILCVHGGLSPDIKTLDQIRTIERNQEIPHKGAFCDLVWSDPEDVDTWAISPRGAGWLFGAKVTNEFVHINNLKLICRAHQLVHEGYKFMFDEKLVTVWSAPNYCYRCGNIASIMVFKDVNTREPKLFRAVPDSERVIPPRTTTPYFL |  | binds |
